In the supplement of paper PMC10849652:
This is one part of the list. Residues, ends and D or L forms follow the SMILES beside them. *: point of attachment. Cbz = O=C(OCc1ccccc1)*

The chains behind the UniProt entries cited, without tags or fusion partners. Where a name states a change or a piece, a line headed by the entry shows the natural chain unless it says otherwise.
UniProt Q8N5C7: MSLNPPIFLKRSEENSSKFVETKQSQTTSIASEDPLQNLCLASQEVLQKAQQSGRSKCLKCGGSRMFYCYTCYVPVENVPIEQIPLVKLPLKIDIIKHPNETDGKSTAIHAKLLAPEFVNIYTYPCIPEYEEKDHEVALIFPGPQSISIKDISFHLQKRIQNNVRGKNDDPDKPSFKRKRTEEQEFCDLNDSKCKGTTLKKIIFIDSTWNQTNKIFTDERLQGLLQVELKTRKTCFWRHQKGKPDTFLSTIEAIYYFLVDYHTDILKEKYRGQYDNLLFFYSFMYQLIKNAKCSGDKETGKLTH
UniProt Q9NX74: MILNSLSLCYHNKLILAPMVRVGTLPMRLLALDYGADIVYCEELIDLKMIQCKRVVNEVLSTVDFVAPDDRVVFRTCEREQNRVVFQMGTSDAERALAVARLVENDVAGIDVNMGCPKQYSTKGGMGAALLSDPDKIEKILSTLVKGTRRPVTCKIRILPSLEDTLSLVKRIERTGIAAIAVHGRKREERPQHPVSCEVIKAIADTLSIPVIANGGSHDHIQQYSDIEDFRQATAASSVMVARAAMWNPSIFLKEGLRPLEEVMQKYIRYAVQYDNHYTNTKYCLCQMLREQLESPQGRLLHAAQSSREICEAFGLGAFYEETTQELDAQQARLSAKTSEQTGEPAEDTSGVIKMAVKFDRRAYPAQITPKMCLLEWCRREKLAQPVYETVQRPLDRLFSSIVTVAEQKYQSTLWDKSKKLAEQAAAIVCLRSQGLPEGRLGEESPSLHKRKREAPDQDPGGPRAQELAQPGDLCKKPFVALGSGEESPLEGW
UniProt Q9H2P9: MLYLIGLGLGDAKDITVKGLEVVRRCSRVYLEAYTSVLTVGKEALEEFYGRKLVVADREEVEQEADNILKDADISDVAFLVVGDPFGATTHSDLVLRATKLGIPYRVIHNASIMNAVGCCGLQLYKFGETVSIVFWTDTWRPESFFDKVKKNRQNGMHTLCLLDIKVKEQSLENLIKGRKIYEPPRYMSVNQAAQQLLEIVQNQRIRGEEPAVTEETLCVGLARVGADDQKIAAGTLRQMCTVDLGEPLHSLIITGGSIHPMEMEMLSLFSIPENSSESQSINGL
UniProt P25685, whole entry, looked up: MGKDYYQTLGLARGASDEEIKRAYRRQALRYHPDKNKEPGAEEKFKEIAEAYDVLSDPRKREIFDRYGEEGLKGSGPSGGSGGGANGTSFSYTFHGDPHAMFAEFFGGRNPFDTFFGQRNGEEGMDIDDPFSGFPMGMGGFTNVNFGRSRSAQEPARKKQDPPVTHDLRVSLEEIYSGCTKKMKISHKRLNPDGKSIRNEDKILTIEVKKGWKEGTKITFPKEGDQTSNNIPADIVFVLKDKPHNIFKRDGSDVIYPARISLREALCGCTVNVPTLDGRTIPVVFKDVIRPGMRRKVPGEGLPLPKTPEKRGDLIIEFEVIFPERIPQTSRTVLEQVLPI
UniProt Q96F86: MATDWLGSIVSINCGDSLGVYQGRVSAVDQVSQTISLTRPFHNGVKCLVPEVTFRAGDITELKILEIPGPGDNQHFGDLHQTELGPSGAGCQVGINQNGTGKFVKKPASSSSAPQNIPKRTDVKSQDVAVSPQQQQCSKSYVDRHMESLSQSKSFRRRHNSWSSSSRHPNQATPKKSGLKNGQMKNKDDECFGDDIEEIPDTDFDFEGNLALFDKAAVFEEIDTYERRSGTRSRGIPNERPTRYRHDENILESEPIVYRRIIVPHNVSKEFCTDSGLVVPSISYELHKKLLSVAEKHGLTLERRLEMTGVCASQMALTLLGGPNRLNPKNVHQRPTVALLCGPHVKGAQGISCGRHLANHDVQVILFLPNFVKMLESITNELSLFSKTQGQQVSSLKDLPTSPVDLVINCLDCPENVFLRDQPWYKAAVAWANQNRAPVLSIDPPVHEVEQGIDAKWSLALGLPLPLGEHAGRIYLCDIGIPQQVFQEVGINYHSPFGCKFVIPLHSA
UniProt Q99848: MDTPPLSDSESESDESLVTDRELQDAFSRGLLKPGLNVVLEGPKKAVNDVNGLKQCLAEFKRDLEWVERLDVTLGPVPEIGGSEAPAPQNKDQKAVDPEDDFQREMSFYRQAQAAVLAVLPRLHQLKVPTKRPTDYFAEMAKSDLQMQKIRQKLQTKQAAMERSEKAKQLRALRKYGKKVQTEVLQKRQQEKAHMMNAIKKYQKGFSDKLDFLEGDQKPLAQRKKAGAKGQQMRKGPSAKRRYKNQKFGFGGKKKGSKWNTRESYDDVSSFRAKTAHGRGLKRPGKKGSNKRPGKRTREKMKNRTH
UniProt Q96FJ2, whole entry, looked up: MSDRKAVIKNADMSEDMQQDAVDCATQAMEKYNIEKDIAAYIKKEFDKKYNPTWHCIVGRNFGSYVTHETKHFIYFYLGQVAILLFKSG
UniProt Q9BU89: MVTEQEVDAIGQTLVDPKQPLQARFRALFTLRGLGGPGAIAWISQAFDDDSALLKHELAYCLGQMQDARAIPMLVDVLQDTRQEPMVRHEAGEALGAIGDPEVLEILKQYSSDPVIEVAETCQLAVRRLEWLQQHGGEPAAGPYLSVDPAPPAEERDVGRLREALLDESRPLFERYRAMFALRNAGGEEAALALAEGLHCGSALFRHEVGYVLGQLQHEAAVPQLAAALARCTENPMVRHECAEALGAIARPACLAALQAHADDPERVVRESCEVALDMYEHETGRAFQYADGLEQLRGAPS
UniProt Q16254: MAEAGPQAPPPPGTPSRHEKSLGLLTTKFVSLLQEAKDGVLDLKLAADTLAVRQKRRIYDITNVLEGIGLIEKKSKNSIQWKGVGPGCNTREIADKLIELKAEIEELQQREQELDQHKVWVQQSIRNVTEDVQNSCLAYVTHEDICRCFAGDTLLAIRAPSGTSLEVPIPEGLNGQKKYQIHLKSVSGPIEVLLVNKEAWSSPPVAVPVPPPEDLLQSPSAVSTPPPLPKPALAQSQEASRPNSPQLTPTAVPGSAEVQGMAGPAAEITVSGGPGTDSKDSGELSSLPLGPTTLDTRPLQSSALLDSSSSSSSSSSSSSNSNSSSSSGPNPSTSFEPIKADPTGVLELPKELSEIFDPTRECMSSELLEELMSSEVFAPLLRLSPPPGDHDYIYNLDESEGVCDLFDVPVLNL
UniProt P50570: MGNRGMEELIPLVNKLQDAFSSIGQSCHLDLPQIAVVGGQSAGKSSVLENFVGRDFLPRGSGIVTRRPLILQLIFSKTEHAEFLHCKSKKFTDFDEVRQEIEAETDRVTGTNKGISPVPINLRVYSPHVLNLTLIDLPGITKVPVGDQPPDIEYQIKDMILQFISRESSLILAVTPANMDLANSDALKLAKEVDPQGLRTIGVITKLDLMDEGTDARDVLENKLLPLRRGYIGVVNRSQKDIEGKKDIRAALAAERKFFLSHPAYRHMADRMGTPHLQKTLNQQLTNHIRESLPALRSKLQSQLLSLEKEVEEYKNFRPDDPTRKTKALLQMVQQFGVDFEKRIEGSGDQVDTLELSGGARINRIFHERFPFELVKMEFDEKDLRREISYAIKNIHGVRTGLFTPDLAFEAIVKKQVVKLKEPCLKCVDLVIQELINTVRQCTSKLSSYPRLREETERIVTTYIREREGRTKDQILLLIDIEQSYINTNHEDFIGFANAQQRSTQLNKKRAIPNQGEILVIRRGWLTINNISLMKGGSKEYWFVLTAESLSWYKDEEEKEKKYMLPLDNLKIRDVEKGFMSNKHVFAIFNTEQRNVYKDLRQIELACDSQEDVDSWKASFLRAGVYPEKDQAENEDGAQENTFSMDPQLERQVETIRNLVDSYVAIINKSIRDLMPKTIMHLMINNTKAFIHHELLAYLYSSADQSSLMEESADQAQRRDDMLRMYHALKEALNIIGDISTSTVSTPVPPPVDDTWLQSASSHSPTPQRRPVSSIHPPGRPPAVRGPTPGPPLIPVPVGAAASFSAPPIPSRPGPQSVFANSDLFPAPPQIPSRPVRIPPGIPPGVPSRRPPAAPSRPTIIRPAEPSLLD
UniProt Q96KC8: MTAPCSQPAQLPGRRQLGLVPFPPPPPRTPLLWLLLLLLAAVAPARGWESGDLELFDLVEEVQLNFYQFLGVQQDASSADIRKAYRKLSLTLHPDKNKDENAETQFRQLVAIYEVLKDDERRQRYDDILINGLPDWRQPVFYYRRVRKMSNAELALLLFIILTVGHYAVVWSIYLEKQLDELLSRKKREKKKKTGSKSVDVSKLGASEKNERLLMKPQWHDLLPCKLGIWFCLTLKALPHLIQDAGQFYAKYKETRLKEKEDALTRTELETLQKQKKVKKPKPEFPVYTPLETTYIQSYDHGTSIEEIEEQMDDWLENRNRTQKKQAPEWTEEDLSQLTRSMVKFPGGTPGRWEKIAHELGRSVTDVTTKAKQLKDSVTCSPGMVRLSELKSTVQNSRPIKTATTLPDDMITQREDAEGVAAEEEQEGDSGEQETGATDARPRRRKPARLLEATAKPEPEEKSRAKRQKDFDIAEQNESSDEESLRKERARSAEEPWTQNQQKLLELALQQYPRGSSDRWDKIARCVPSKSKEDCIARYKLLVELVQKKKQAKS
UniProt Q5JPH6: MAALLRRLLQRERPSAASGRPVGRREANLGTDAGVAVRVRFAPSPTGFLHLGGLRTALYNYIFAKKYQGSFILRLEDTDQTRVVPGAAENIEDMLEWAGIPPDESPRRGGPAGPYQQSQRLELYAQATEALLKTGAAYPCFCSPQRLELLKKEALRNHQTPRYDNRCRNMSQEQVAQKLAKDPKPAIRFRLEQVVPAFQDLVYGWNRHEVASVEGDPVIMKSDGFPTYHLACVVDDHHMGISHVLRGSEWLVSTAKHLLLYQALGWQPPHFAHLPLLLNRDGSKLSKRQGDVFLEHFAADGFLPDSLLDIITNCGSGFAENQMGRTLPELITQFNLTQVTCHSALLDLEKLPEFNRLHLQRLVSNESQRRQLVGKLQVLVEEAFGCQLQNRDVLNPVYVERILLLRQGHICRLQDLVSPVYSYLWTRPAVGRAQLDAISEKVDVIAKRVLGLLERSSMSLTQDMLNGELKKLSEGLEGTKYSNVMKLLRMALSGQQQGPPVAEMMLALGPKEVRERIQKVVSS
UniProt Q13409, whole entry, looked up: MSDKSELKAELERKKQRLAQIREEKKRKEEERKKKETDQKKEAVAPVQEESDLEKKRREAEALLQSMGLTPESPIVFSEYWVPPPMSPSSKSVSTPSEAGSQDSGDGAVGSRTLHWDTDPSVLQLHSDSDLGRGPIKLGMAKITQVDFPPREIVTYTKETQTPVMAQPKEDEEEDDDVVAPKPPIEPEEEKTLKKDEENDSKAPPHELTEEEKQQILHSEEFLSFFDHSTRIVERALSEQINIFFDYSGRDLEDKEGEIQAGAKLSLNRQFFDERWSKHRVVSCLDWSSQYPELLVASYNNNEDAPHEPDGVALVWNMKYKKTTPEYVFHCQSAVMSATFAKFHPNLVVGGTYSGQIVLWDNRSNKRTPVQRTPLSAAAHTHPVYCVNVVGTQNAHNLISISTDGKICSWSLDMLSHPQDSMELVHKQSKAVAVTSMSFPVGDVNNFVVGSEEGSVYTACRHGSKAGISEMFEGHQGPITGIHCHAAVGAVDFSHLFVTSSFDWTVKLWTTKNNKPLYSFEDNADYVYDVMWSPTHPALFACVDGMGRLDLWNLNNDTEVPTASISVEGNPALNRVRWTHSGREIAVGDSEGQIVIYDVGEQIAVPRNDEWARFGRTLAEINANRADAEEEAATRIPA
UniProt Q6V1X1: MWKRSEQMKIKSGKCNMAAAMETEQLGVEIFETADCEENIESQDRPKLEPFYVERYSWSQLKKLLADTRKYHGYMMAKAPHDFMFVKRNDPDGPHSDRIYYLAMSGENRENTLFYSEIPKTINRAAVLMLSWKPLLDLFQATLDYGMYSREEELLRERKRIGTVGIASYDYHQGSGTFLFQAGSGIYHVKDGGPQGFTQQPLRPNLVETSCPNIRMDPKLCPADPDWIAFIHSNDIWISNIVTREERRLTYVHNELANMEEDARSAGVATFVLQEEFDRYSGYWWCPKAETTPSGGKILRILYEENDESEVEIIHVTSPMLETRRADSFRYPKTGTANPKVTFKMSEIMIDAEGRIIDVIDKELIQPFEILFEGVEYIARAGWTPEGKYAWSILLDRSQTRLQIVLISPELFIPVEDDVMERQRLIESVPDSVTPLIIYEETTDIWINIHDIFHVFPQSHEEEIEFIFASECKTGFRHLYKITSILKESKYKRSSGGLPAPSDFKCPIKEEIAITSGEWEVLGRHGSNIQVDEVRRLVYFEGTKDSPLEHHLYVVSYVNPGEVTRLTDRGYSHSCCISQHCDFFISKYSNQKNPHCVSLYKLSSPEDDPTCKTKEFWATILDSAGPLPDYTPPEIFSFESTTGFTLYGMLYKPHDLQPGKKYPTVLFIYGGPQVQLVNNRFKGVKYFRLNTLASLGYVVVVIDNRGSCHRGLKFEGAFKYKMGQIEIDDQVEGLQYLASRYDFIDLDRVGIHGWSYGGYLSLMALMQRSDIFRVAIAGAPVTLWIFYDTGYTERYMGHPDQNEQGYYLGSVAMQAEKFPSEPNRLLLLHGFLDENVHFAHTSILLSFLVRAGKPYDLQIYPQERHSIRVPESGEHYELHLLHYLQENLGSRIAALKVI

Tests used:
Assay in all cases: log2 fold change, soluble protein after heating vs DMSO (PISA); higher = thermal stabilisation; K562 cells, 10 uM, 30 min; active = over 0.2 and 3.5 SD of the protein, either way, in both replicates (recomputed)
IRAK-1-4 Inhibitor I = compound: C1COCCN1CCN2C3=CC=CC=C3N=C2NC(=O)C4=CC(=CC=C4)[N+](=O)[O-] [IRAK-1-4 Inhibitor I]
Method in brief: (§1)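 K562 cells at 2×10^6 cells/mL were exposed to 10 μM compound for 30 min, then aliquots were heated for 3 min across 48°C-58°C, pooled, and extracted in PBS containing 0.5% NP-40 at 4°C. The supernatant after 21,000xg for 90 min was taken as soluble protein and measured by TMTpro 16plex LC-MS/MS with channel sums equalised. Thermal stability is reported relative to control samples, with values from duplicates. Fold changes are given on a log2 scale.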

ibrutinib = compound: C=CC(=O)N1CCC[C@@H](n2nc(-c3ccc(Oc4ccccc4)cc3)c3c(N)ncnc32)C1 [ibrutinib]
Method in brief: as §1

[1] = compound: CC(=O)c1cnc2ccc(-c3cc(Cl)c(O)c(Cl)c3)nc2c1N[C@H]1CC[C@H](CN(C)C)CC1
Method in brief: as §1

ralimetinib = compound: CC(C)(C)Cn1c(N)nc2ccc(-c3[nH]c(C(C)(C)C)nc3-c3ccc(F)cc3)nc21 [ralimetinib]
Method in brief: as §1

[2] = compound: CC(C)(O)CC(=O)NCCn1ccc2ncnc(Nc3ccc(Oc4cccc(C(F)(F)F)c4)c(Cl)c3)c21
Method in brief: as §1

[3] = compound: CC(C)C1=C2N=C(C=C(N2N=C1)NCC3=CC=CC=C3)NCCCCCCN
Method in brief: as §1

[4] = compound: CC(C)C[C@@H](C=O)NC(=O)[C@H](CC(C)C)NC(=O)[C@H](CC(C)C)NC(=O)OCc1ccccc1
Method in brief: as §1

pinometostat = compound: CC(C)N(C[C@H]1O[C@@H](n2cnc3c(N)ncnc32)[C@H](O)[C@@H]1O)[C@H]1C[C@@H](CCc2nc3cc(C(C)(C)C)ccc3[nH]2)C1 [pinometostat]
Method in brief: as §1

[5] = compound: CC1=C(C2=C(C=C1)C(=O)C3=CC=CC=C3N2CCCN)C
Method in brief: as §1

[6] = compound: CC1=C(C=C(C=C1)NC(=O)C2=CC(=CC=C2)C(C)(C)C#N)NC3=CC4=C(C=C3)N=CN(C4=O)C
Method in brief: as §1

[7] = compound: CC1=C(C=C(C=C1)NC(=O)C2=CC(=CC=C2)N(C)C)NC(=O)C3=CC=C(C=C3)O
Method in brief: as §1

[8] = compound: CC1=CC=C(C=C1)SC2=C3C=C(SC3=CN=C2)C(=O)N
Method in brief: as §1

[9] = compound: CC1=NC(=CC=C1)C2=C(N=C(N2)C(C)(C)C)C3=CC4=NC=CN=C4C=C3
Method in brief: as §1

Nexturastat A = compound: CCCCN(Cc1ccc(C(=O)NO)cc1)C(=O)Nc1ccccc1 [Nexturastat A]
Method in brief: as §1

vemurafenib = compound: CCCS(=O)(=O)Nc1ccc(F)c(C(=O)c2c[nH]c3ncc(-c4ccc(Cl)cc4)cc23)c1F [vemurafenib]
Method in brief: as §1

[10] = compound: CCCS(=O)(=O)Nc1ccc(F)c(C(=O)c2c[nH]c3ncc(Cl)cc23)c1F
Method in brief: as §1

[11] = compound: CCCc1cc(C)[nH]c(=O)c1CNC(=O)c1cc(-c2ccnc(N3CCN(C)CC3)c2)cc2c1cnn2C(C)C
Method in brief: as §1

givinostat = compound: CCN(CC)Cc1ccc2cc(COC(=O)Nc3ccc(C(=O)NO)cc3)ccc2c1 [givinostat]
Method in brief: as §1

barasertib = compound: CCN(CCCOc1ccc2c(Nc3cc(CC(=O)Nc4cccc(F)c4)[nH]n3)ncnc2c1)CCOP(=O)(O)O [barasertib]
Method in brief: as §1

[12] = compound: CC1=C(C(CC(=O)N1)C2=CC=C(C=C2)C(F)(F)F)C(=O)NC3=C(C=C4C(=C3)C=NN4)F
Method in brief: as §1

Target	log2 fold change (IRAK-1-4 Inhibitor I)	log2 fold change (ibrutinib)	log2 fold change [1]	log2 fold change (ralimetinib)	log2 fold change [2]	log2 fold change [3]	log2 fold change [4]	log2 fold change (pinometostat)	log2 fold change [5]	log2 fold change [6]	log2 fold change [7]	log2 fold change [8]	log2 fold change [9]	log2 fold change (Nexturastat A)	log2 fold change (vemurafenib)	log2 fold change [10]	log2 fold change [11]	log2 fold change (givinostat)	log2 fold change (barasertib)	log2 fold change [12]
DTWD1 (UniProt Q8N5C7)	inactive: 0.043	inactive: 0.014	inactive: 0.076	inactive: 0	inactive: -0.022	inactive: 0.161	inactive: -0.021	inactive: -0.026	inactive: 0.136	inactive: 0.05	inactive: -0.042	inactive: 0.023	inactive: 0.081	inactive: -0.072	inactive: 0.115	inactive: -0.013	inactive: 0.036	inactive: -0.172	inactive: -0.027	
DUS2 (UniProt Q9NX74)	inactive: 0.014	inactive: 0.041	inactive: -0.063	inactive: 0.033	inactive: -0.161	inactive: 0.043	inactive: 0.044	inactive: -0.001	inactive: -0.1	inactive: -0.028	inactive: -0.022	inactive: -0.022	inactive: 0.04	inactive: -0.015	inactive: -0.004	inactive: 0.099	inactive: 0.039	inactive: 0.062	inactive: -0.062	
DPH5 isoform 5 (UniProt Q9H2P9)	inactive: 0.036	inactive: 0.025	inactive: -0.01	inactive: -0.018	inactive: -0.053	inactive: 0.045	inactive: -0.071	inactive: -0.009	inactive: 0.027	inactive: 0.009	inactive: -0.01	inactive: 0.046	inactive: 0.042	inactive: -0.079	inactive: -0.041	inactive: 0.087	inactive: -0.045	inactive: -0.105	inactive: -0.006	
DNAJB1 (UniProt P25685)	inactive: -0.059	inactive: -0.011	inactive: -0.017	inactive: 0	inactive: -0.012	inactive: -0.015	inactive: -0.065	inactive: -0.086	inactive: 0.022	inactive: 0.015	inactive: -0.045	inactive: -0.003	inactive: 0.086	inactive: -0.03	inactive: 0.009	inactive: 0.028	inactive: -0.051	inactive: 0.024	inactive: 0.024	
EEA1 (UniProt Q15075)	inactive: 0.037	inactive: 0.002	inactive: 0.02	inactive: -0.068	inactive: 0.013	inactive: 0.025	inactive: -0.022	inactive: -0.041	inactive: -0.004	inactive: -0.027	inactive: 0.009	inactive: 0.009	inactive: 0.011	inactive: -0.035	inactive: -0.024	inactive: 0.003	inactive: -0.036	inactive: -0.01	inactive: 0.009	
EDC3 (UniProt Q96F86)	inactive: -0.029	inactive: -0.082	active: -0.643	inactive: 0.013	inactive: -0.117	inactive: -0.223	inactive: 0.019	inactive: 0.011	inactive: -0.049	inactive: -0.046	inactive: 0.085	inactive: 0.021	inactive: 0.037	inactive: 0.088	inactive: 0.046	inactive: 0.008	inactive: 0.1	inactive: 0.049	inactive: 0.055	
DUSP23 (UniProt Q9BVJ7)	inactive: 0.033	inactive: 0.025	inactive: -0.03	inactive: 0.004	inactive: -0.059	inactive: 0.064	inactive: 0.04	inactive: 0.006	inactive: 0.096	inactive: -0.005	inactive: -0.143	inactive: 0.017	inactive: -0.037	inactive: 0.002	inactive: -0.155	inactive: 0.016	inactive: -0.016	inactive: -0.009	inactive: 0.035	inactive: 0.005
EBNA1BP2 (UniProt Q99848)	inactive: -0.143	inactive: -0.013	inactive: 0.013	inactive: 0.27	inactive: 0.124	inactive: 0.213	inactive: -0.026	inactive: 0.439	active: -1.4	inactive: -0.014	inactive: -0.033	inactive: -0.07	inactive: -0.153	inactive: 0.438	inactive: -0.042	inactive: 0.004	inactive: 0.113	inactive: 0.174	inactive: -0.187	
DYNLL2 (UniProt Q96FJ2)	inactive: -0.017	inactive: 0.034	inactive: -0.003	inactive: -0.017	inactive: -0.027	inactive: -0.007	inactive: -0.028	inactive: -0.075	inactive: 0.184	inactive: -0.066	inactive: -0.098	inactive: 0.017	inactive: 0.041	inactive: 0.051	inactive: 0.008	inactive: 0.001	inactive: 0.035	inactive: -0.004	inactive: 0.048	inactive: -0.116
DOHH (UniProt Q9BU89)	inactive: 0.127	inactive: 0.137	inactive: 0.103	inactive: 0.004	inactive: 0.244	inactive: 0.045	inactive: -0.106	inactive: 0.011	inactive: 0.189	inactive: 0.083	inactive: -0.069	inactive: 0.084	inactive: -0.091	inactive: -0.144	inactive: 0.001	inactive: -0.059	inactive: -0.063	inactive: -0.068	inactive: -0.274	
E2F4 (UniProt Q16254)	inactive: -0.025	inactive: -0.009	inactive: -0.073	inactive: 0.011	inactive: -0.072	inactive: -0.167	inactive: 0.038	inactive: 0.001	inactive: -0.119	inactive: 0.031	inactive: 0.011	inactive: 0.087	inactive: 0.079	inactive: 0.034	inactive: -0.001	inactive: 0.02	inactive: 0.021	inactive: 0.05	inactive: 0.054	
DNM2 (UniProt P50570)	inactive: 0.022	inactive: 0.017	inactive: -0.023	inactive: -0.02	inactive: -0.081	inactive: -0.075	inactive: 0.029	inactive: -0.014	inactive: 0.076	inactive: -0.016	inactive: -0.043	inactive: 0.009	inactive: 0.024	inactive: -0.057	inactive: 0.016	inactive: 0.033	inactive: -0.007	inactive: 0.036	inactive: 0.054	
DNAJC1 (UniProt Q96KC8)	inactive: 0.017	inactive: 0.02	inactive: -0.026	inactive: -0.081	inactive: -0.117	active: -0.462	inactive: 0.025	inactive: -0.037	inactive: 0.019	inactive: 0.027	inactive: 0	inactive: 0.014	inactive: 0.049	inactive: -0.079	inactive: -0.007	inactive: 0.037	inactive: -0.13	inactive: -0.013	inactive: 0.047	
EARS2 isoform 2 (UniProt Q5JPH6)	inactive: 0.003	inactive: -0.204	inactive: -0.062	inactive: -0.065	inactive: -0.442	inactive: -0.001	inactive: -0.001	inactive: 0.021	inactive: 0.153	inactive: -0.021	inactive: -0.181	inactive: 0.05	inactive: 0.064	inactive: -0.045	inactive: 0.11	inactive: -0.027	inactive: 0.08	inactive: 0.078	inactive: 0.132	inactive: 0.103
DYNC1I2 isoform 5 (UniProt Q13409)	inactive: 0.022	inactive: 0.016	inactive: 0.022	inactive: 0.013	inactive: -0.003	inactive: 0.041	inactive: 0.062	inactive: -0.019	inactive: -0.032	inactive: -0.008	inactive: -0.03	inactive: -0.006	inactive: 0.028	inactive: 0.043	inactive: -0.009	inactive: 0.005	inactive: -0.007	inactive: -0.005	inactive: -0.013	
DPP8 (UniProt Q6V1X1)	inactive: 0.002	inactive: -0.001	inactive: -0.035	inactive: -0.046	inactive: -0.005	inactive: 0.059	inactive: 0.015	inactive: -0.018	inactive: 0.12	inactive: -0.109	inactive: -0.026	inactive: -0.031	inactive: 0.021	inactive: 0.082	inactive: -0.056	inactive: -0.05	inactive: -0.176	inactive: -0.026	inactive: 0.014	
DNAJC7 (UniProt Q99615)	inactive: -0.041	inactive: -0.012	inactive: -0.007	inactive: -0.014	inactive: -0.022	inactive: -0.117	inactive: 0.023	inactive: -0.034	inactive: 0.04	inactive: -0.006	inactive: -0.037	inactive: 0.029	inactive: 0.042	inactive: -0.01	inactive: 0.029	inactive: 0.098	inactive: 0.02	inactive: 0.032	inactive: 0.064	

A stretch taken from the entries so far, for reference:
Target	log2 fold change (IRAK-1-4 Inhibitor I)	log2 fold change (ibrutinib)	log2 fold change [1]	log2 fold change (ralimetinib)	log2 fold change [2]	log2 fold change [3]	log2 fold change [4]	log2 fold change (pinometostat)	log2 fold change [5]	log2 fold change [6]	log2 fold change [7]	log2 fold change [8]	log2 fold change [9]	log2 fold change (Nexturastat A)	log2 fold change (vemurafenib)	log2 fold change [10]	log2 fold change [11]	log2 fold change (givinostat)	log2 fold change (barasertib)	log2 fold change [12]
DYNLL2 (UniProt Q96FJ2)	inactive: -0.017	inactive: 0.034	inactive: -0.003	inactive: -0.017	inactive: -0.027	inactive: -0.007	inactive: -0.028	inactive: -0.075	inactive: 0.184	inactive: -0.066	inactive: -0.098	inactive: 0.017	inactive: 0.041	inactive: 0.051	inactive: 0.008	inactive: 0.001	inactive: 0.035	inactive: -0.004	inactive: 0.048	inactive: -0.116
DOHH (UniProt Q9BU89)	inactive: 0.127	inactive: 0.137	inactive: 0.103	inactive: 0.004	inactive: 0.244	inactive: 0.045	inactive: -0.106	inactive: 0.011	inactive: 0.189	inactive: 0.083	inactive: -0.069	inactive: 0.084	inactive: -0.091	inactive: -0.144	inactive: 0.001	inactive: -0.059	inactive: -0.063	inactive: -0.068	inactive: -0.274	
